The target of one experiment is T1, NHE2-GFP (human) (UniProt Q9UBY0).
T1 sequence: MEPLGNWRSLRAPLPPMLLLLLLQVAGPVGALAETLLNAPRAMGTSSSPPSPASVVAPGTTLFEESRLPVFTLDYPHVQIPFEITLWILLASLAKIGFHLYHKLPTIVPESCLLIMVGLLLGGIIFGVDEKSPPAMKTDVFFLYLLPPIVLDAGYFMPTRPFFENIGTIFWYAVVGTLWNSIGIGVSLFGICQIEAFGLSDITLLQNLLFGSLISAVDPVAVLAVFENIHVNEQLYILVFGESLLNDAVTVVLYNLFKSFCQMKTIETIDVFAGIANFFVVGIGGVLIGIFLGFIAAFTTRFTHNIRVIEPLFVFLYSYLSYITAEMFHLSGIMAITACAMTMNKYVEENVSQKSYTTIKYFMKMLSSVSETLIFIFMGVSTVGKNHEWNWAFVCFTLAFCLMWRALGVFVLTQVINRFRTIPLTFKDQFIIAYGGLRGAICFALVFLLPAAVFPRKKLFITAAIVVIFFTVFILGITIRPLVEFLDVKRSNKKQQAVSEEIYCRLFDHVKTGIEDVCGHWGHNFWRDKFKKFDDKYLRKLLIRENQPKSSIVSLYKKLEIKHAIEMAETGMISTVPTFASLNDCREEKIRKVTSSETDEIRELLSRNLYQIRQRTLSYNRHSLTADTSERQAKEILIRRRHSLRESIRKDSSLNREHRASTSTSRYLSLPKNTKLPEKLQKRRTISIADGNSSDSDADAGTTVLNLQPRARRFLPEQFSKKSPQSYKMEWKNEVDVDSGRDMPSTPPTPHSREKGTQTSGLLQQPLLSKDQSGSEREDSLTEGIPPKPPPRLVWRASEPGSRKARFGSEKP
The experiment in a line: co-IP; HEK293T cells stably expressing the GFP and DsRed fusions; whole cell lysate (50 mM Tris-HCl pH 7.5, 150 mM NaCl, 1% Igepal CA-630); GFP-Trap magnetic beads or anti-RFP (6G6) on Protein A Dynabeads, 4 °C overnight; blots for GFP and DsRed; normal IgG as negative control.

The target of the next experiment is cystinosin-DsRed (human). The experiment is described as above.

No constants are given. Whether binding was seen depends on the method and setting. In cells and extracts the contact can be indirect. Binding calls can cover weak binding; strength is not graded here. Sequences can lack the tags named with a protein.

cystinosin-DsRed (human): the binding entry with NHE2-GFP (human) is on record as “binds”.

B1: NHE2-GFP (protein, UniProt Q9UBY0 1-812)
chain: T1 sequence
Turning to B1, the binding entry with cystinosin-DsRed (human) is “binds”.

Source of the values: PMC13121807.
